This passage reports binding results from article PMC12748396.

No constants are given. Whether binding was seen depends on the method and setting. Binding seen in cells or lysates may run through a third protein. These calls come from enrichment with a bait or labelling near it, and not all partners need be listed.

The target of the experiment is T1, Trem2 (triggering receptor expressed on myeloid cells 2), overexpressed by lentivirus in macrophages (UniProt Q99NH8).
T1 sequence: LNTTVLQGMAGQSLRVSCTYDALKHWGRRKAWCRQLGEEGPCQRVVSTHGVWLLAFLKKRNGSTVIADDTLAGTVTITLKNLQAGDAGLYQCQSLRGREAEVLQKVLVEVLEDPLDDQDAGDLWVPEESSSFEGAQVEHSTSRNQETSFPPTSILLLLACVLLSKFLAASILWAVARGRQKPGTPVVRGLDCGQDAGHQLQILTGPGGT
Kind of experiment: affinity purification with mass spectrometry; immunoprecipitation of 1 x 10^7 Trem2-overexpressing macrophages stimulated with Ang II for 72 h (Millipore protocol 17-500); bands from 4-12% SDS-PAGE digested with trypsin, LC-MS/MS.

B1: Interleukin-13, endogenous in senescent mouse macrophages (ligand, UniProt P20109 19-131)
chain: APGPVPRSVSLPLTLKELIEELSNITQDQTPLCNGSMVWSVDLAAGGFCVALDSLTNISNCNAIYRTQRILHGLCNRKAPTTVSSLPDTKIEVAHFITKLLSYTKQLFRHGPF
As to B1, the binding result is given as “binds”.
